# Results taken from PubChem BioAssay AID504467 (National Center for Advancing Translational Sciences (NCATS), 2011).
# Out of some 330,000 compounds screened, about 7,700 (2.3%) were called active. This list was built around the results that the source calls inconclusive (neither active nor inactive); the mix of calls is not that of the screen. Calls come from the whole dose curve; as a rule, active = well fitted inhibition curve with a large enough effect; inconclusive = small, poorly fitted or top-dose-only effect, or effect the other way; inactive = flat fitted curve, though single readings scatter. A potency beside an inconclusive call is a rough fit, not a confirmed value.
# Experiment: qHTS screen for small molecules that inhibit ELG1-dependent DNA repair in human embryonic kidney (HEK293T) cells expressing luciferase-tagged ELG1; note: nearly all actives have a fitted effect of over 55% in size
# Conditions: HEK293T ELG1-luciferase reporter, luminescence, 16 h, DNA damage induced by 5-fluorouridine; series mostly up to 46.1 µM
# Method in brief: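 Reporter activity after DNA damage by 5-fluorouridine is monitored. Compound-treated cells incubate 16 hr at 37 °C, then ONE-Glo is added for 30 min before luminescence reading.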
# Potency is the fitted concentration of half-maximal effect.
row,SMILES,Potency
1,CCOC(=O)c1csc(NC(=O)CN2CCOCC2)n1,"inconclusive: 29.1 µM [activator, partial curve, poor fit]"
2,CC(=O)c1c(C)[nH]c(C(=O)COC(=O)Cc2ccccc2F)c1C,"inconclusive: 23.1 µM [activator, single point]"
3,CN(C(=O)CCCN1CCCC1=O)C1CCCN(Cc2ccccc2F)C1 (stereo not given),inactive
4,Oc1ccc(/C=N/Nc2nc(N3CCCCCC3)nc(N3CCCCCC3)n2)c(O)c1,"inconclusive: 18.3 µM [inhibitor, single point]"
5,CC(=O)Nc1cc(C(=O)NCc2ccco2)ccc1Sc1ccc(Cl)cc1,inactive
6,O=C1CN(C(=O)c2ccc(Cl)c(S(=O)(=O)N3CCc4ccccc43)c2)c2ccccc2N1,"inconclusive: 5.8 µM [inhibitor, full curve]"
7,COc1ccc(NC(=O)c2ccc(NC(=O)CSc3nc(N)cc(=O)[nH]3)cc2)cc1,"inconclusive: 20 µM [activator, single point]"
8,CC(C)[n+]1ccn(C2=C([O-])c3ccccc3C(=O)/C2=N\S(=O)(=O)c2ccccc2)c1,active: 23.1 µM
9,Cc1onc(-c2ccccc2Cl)c1C(=O)Nc1sc2c(c1C#N)CCC2,"inconclusive: 23.1 µM [inhibitor, single point]"
10,CCC(=O)Oc1ccc2c(C)cc(=O)oc2c1C,"inconclusive: 12.6 µM [inhibitor, single point]"
11,O=C1CCCc2c1cc(C(=O)NC1CCSC1=O)c(=O)n2-c1ccccc1 (stereo not given),inactive
12,CC(=O)c1ccc(N2CCN(C(=O)COc3ccc(F)cc3)CC2)c(F)c1,"inconclusive: 35.5 µM [inhibitor, single point]"
13,CC(=O)c1ccc(NC(=O)c2cc3nc4c(c(C(F)(F)F)n3n2)CCCC4)cc1,"inconclusive: 9.2 µM [activator, partial curve]"
14,COc1ccc(S(=O)(=O)N2CCOCC2)cc1NC(=O)CC(C)c1ccccc1 (stereo not given),"inconclusive: 13 µM [inhibitor, partial curve, poor fit]"
15,CCOc1ccc(CNC(=O)c2ccc(Sc3ccc(Cl)cc3)c(NC(C)=O)c2)cc1OC,"inconclusive: 16.4 µM [inhibitor, partial curve]"
16,COc1ccc(NC(=O)CN2CCCN(S(=O)(=O)c3ccc(F)cc3)CC2)cc1,inactive
17,COc1ccc(NC(=O)/C=C/c2cccc(Br)c2)cn1,"inconclusive: 4.11 µM [activator, single point]"
18,Cc1ccc(/C=N/N2CCN(Cc3ccc(C)cc3)CC2)cc1,inactive
19,COc1ccc2nc3sc(C(=O)NCCN4CCc5ccccc5C4)cc3cc2c1,inactive
20,O=C(CSc1nnc(Cc2ccccc2)o1)Nc1ccccc1,inactive
21,Cc1cc(=O)[nH]c(N/N=C2/CCCC/C2=C\c2ccccc2)n1,active: 8.2 µM
22,CNC(=O)NNC(=O)c1onc(-c2c(Cl)cccc2Cl)c1C(=O)OC,inactive
23,Cc1ccccc1NC(=O)Cn1c(O)c(N=NC(=O)c2ccccc2O)c2ccccc21,inactive

row,SMILES,Potency
1,Clc1ccc(-c2nnsc2SCc2ccccc2)cc1,"inconclusive: 20.6 µM [activator, partial curve, poor fit]"
2,O=C(Nc1nccs1)c1ccc(-c2cccc([N+](=O)[O-])c2)o1,"inconclusive: 5.8 µM [activator, full curve]"
3,O=C(c1ccccc1SCc1ccc(F)cc1)N1CCOCC1,inactive
4,Cn1cnnc1SCC(=O)c1ccc2c(c1)CCCC2,"inconclusive: 16.4 µM [activator, partial curve]"
5,COC(=O)CN1C(=O)COc2ccc(S(=O)(=O)NCc3ccc(F)cc3)cc21,"inconclusive: 7.3 µM [activator, partial curve, poor fit]"
6,Cc1ccc(NS(=O)(=O)c2ccc(N3CCN(c4ccc(O)cc4)CC3)c([N+](=O)[O-])c2)c(C)c1,inactive
7,CC(=O)Nc1ccc(N(C(=O)c2ccco2)C(C(=O)NC2CCCCC2)c2ccccc2)cc1 (stereo not given),inactive
8,CCCCc1nc2cc(C(=O)N3CCN(c4nc(C)cnc4C)CC3)ccc2o1,"inconclusive: 6.51 µM [activator, single point]"
9,CCN(CC)S(=O)(=O)c1ccc(N2CCOCC2)c(NC(=O)c2cc(Cl)c3c(c2)OCO3)c1,active: 8.2 µM
10,COc1ccc(C(=O)OCC(=O)c2ccc[nH]2)cc1,"inconclusive: 20.6 µM [activator, single point]"
11,CCCn1c(=S)[nH]c2cc(C(=O)N3CCN(C4CCCCC4)CC3)ccc2c1=O,inactive
12,COC(=O)Nc1ccc(S(=O)(=O)N2CCCC(C(=O)N3CCCCC3)C2)cc1 (stereo not given),"inconclusive: 11.6 µM [inhibitor, partial curve, poor fit]"
13,CS(=O)(=O)N1CCN(c2nc3ccc(Cl)cc3s2)CC1,"inconclusive: 2.31 µM [activator, partial curve]"
14,COc1ccccc1CNC(=O)CCN1C(=O)COc2ccc(C)cc21,"inconclusive: 1.16 µM [activator, single point]"
15,CC(OC(=O)c1ccco1)C(=O)Nc1ccc(C(F)(F)F)cc1 (stereo not given),inactive
16,COc1cc(OC)cc(C(=O)NCC(=O)OCC(=O)/C=C2/N(C)c3ccccc3C2(C)C)c1,inactive
17,CN1CCN(S(=O)(=O)c2ccc(-c3ccc(Cl)cc3)cc2)CC1,inactive
18,Cc1c(C(=O)N2CCN(S(=O)(=O)c3ccccc3)CC2)oc2ccc(Br)cc12,"inconclusive: 29.1 µM [inhibitor, single point]"
19,CCc1nonc1NC(=O)c1oc2ccccc2c1C,"inconclusive: 25.9 µM [activator, single point]"
20,CCc1ccc(C(=O)NCc2cccs2)s1,"inconclusive: 9.2 µM [activator, single point]"
21,Cc1sc(NC(=O)c2ccco2)nc1-c1ccccc1,"inconclusive: 0.651 µM [activator, full curve]"
22,COc1ccccc1CNC(=O)C1CCN(S(=O)(=O)c2ccc3c(c2)CC(C)N3C(C)=O)CC1 (stereo not given),"inconclusive: 8.2 µM [inhibitor, partial curve, poor fit]"

# In a second layout: entries from further up
row	SMILES	Potency
8	CCCCc1nc2cc(C(=O)N3CCN(c4nc(C)cnc4C)CC3)ccc2o1	inconclusive: 6.51 µM [activator, single point]
9	CCN(CC)S(=O)(=O)c1ccc(N2CCOCC2)c(NC(=O)c2cc(Cl)c3c(c2)OCO3)c1	active: 8.2 µM
10	COc1ccc(C(=O)OCC(=O)c2ccc[nH]2)cc1	inconclusive: 20.6 µM [activator, single point]
11	CCCn1c(=S)[nH]c2cc(C(=O)N3CCN(C4CCCCC4)CC3)ccc2c1=O	inactive
12	COC(=O)Nc1ccc(S(=O)(=O)N2CCCC(C(=O)N3CCCCC3)C2)cc1 (stereo not given)	inconclusive: 11.6 µM [inhibitor, partial curve, poor fit]
13	CS(=O)(=O)N1CCN(c2nc3ccc(Cl)cc3s2)CC1	inconclusive: 2.31 µM [activator, partial curve]
14	COc1ccccc1CNC(=O)CCN1C(=O)COc2ccc(C)cc21	inconclusive: 1.16 µM [activator, single point]
15	CC(OC(=O)c1ccco1)C(=O)Nc1ccc(C(F)(F)F)cc1 (stereo not given)	inactive
16	COc1cc(OC)cc(C(=O)NCC(=O)OCC(=O)/C=C2/N(C)c3ccccc3C2(C)C)c1	inactive
17	CN1CCN(S(=O)(=O)c2ccc(-c3ccc(Cl)cc3)cc2)CC1	inactive
18	Cc1c(C(=O)N2CCN(S(=O)(=O)c3ccccc3)CC2)oc2ccc(Br)cc12	inconclusive: 29.1 µM [inhibitor, single point]
19	CCc1nonc1NC(=O)c1oc2ccccc2c1C	inconclusive: 25.9 µM [activator, single point]
20	CCc1ccc(C(=O)NCc2cccs2)s1	inconclusive: 9.2 µM [activator, single point]
